The text below walks through data of PubChem BioAssay AID298 (DTP/NCI, 2004).

The list is a part of this screen's results and no random one: it is rich in T/C values a quarter to a half above the control, in often repeated tests (any T/C) and in doses without a T/C. Other doses and runs of a compound stand elsewhere. T/C is the treated group as % of the vehicle group. Schedules are NCI's codes, read here as Q, the interval in days (D) or hours (H), X, the number of doses. Some T/C values are followed by the survivors on the day toxicity was checked, most often the fifth; where none is given, no animal had died by that day. Some entries hold several experiments; the results are listed from low to high. Marks such as (2×) give the number of equal values in this list. Some T/C values are negative: the treated tumours shrank. Some doses have a count of surviving animals in place of a T/C: the source files T/C as zero there, which appears to mark a toxic dose or a test without result, not a measured value. Survivors were counted at the toxicity check, usually on the fifth day, unless a day is given; later deaths do not show.

In the assay the test system is MX-1 breast xenograft, intrarenal, nude mice, tumor weight. Briefly: NCI In Vivo Anticancer Drug Screen. Data for tumor model Human Mammary Carcinoma MX-1 Xenograft (intrarenal inoculation) in NU/NU BALB/C (nude) mice. The conditions noted are these: T/C endpoint: mean tumor weight change, higher T/C = larger tumour; for T/C: evaluated on day 11. The gist of the method: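 T/C readout: treated-group measurement over vehicle-control measurement, using tumor size or survival in tumor-bearing mice.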

[1] abbreviates: dose: 60.0 mg/kg/injection, schedule: Q04DX003 (ip), vehicle: saline with Tween-80.
Setting [2] is: dose: 240.0 mg/kg/injection, schedule: Q04DX003 (ip), vehicle: saline with Tween-80.
Where [3] appears, read: dose: 300.0 mg/kg/injection, schedule: Q04DX003 (ip), vehicle: Klucel (hydroxypropylcellulose) (HPC).
The mark [4] stands for this setting: dose: 1200.0 mg/kg/injection, schedule: Q04DX003 (ip), vehicle: DMSO.
The mark [5] stands for this setting: dose: 400.0 mg/kg/injection, schedule: Q04DX003 (ip), vehicle: saline with Tween-80.
[6] abbreviates: dose: 2.25 mg/kg/injection, schedule: Q01DX009 (ip), vehicle: saline.

For `NC(Cc1ccc(N(CCCl)CCCl)cc1)C(=O)O` (stereo not drawn), the survivor count by setting is: (dose: 20.0 mg/kg/injection, schedule: Q04DX003 (sc), vehicle: Klucel (hydroxypropylcellulose) (HPC)) 3 of 6 on day 11; (dose: 40.0 mg/kg/injection, schedule: Q04DX003 (sc), vehicle: Klucel (hydroxypropylcellulose) (HPC)) 0 of 6 on day 11; (dose: 80.0 mg/kg/injection, schedule: Q04DX003 (sc), vehicle: Klucel (hydroxypropylcellulose) (HPC)) 0 of 6 on day 11.
`Cn1c(=S)sc2nc3ccccc3n2c1=S`: under setting [1], the T/C was 129 % of control. The survivor count is, setting by setting: under setting [2], 3 of 5 on day 11; (dose: 480.0 mg/kg/injection, schedule: Q04DX003 (ip), vehicle: saline with Tween-80) 1 of 6 on day 11.
As for `COc1cc2c(c3c1c(=O)c1cccc(F)c1n3C)C=CC(C)(C)O2`, the survivor count is listed as 1 of 6 on day 11 (dose: 150.0 mg/kg/injection, schedule: Q04DX003 (ip), vehicle: Klucel (hydroxypropylcellulose) (HPC)); 1 of 6 on day 11 under setting [3]; 0 of 6 on day 11 (dose: 600.0 mg/kg/injection, schedule: Q04DX003 (ip), vehicle: Klucel (hydroxypropylcellulose) (HPC)).
Take `O=C(CN1CCOCC1)Nc1nc(-c2ccc(Cl)cc2)cs1`: the T/C (dose: 300.0 mg/kg/injection, schedule: Q04DX003 (ip), vehicle: other) is 138 % of control.
Consider `COC(=O)C1(F)C(=O)NC(=O)NC1OC` (stereo not drawn), for which the survivor count (dose: 1200.0 mg/kg/injection, schedule: Q04DX003 (ip), vehicle: Klucel (hydroxypropylcellulose) (HPC)) is 2 of 6 on day 11.
In the case of `Nc1ccc(S(=O)(=O)Nc2cnc3c(Cl)cccc3n2)cc1`, the survivor count under setting [4] is 3 of 6 on day 11.
With `Cc1cccc(OCC(O)CN2CC2)c1` (stereo not drawn), the survivor count was 2 of 6 on day 11 (dose: 200.0 mg/kg/injection, schedule: Q04DX003 (ip), vehicle: saline with Tween-80) and 0 of 6 on day 11 under setting [5].
For `Nc1ccn([C@@H]2C=C(CO)[C@@H](O)[C@H]2O)c(=O)n1`, the T/C runs as follows: (dose: 0.67 mg/kg/injection, schedule: Q01DX009 (ip), vehicle: saline) 13, 24 (2×), 48 % of control (2×); (dose: 1.0 mg/kg/injection, schedule: Q01DX009 (ip), vehicle: saline) 8 (2×), 9, 16 (2×), 17 % of control [5 of 6 alive on day 11]; (dose: 1.5 mg/kg/injection, schedule: Q01DX009 (ip), vehicle: saline) 5 (2×) and 6 % of control; under setting [6], -17 % of control [4 of 6 alive on day 11] (2×). For the same molecule, the survivor count under setting [6] was 1 of 6 on day 11 and the survivor count (dose: 4.0 mg/kg/injection, schedule: Q01DX009 (ip), vehicle: saline) is on record as 1 of 6 on day 11.
For `Nc1nc(=S)c2[nH]cnc2[nH]1`, the T/C is 131 % of control (dose: 0.4 mg/kg/injection, schedule: Q01DX010 (sc), vehicle: Klucel (hydroxypropylcellulose) (HPC)) and 125 % of control (dose: 0.8 mg/kg/injection, schedule: Q01DX010 (sc), vehicle: Klucel (hydroxypropylcellulose) (HPC)). Moreover, the survivor count (dose: 3.2 mg/kg/injection, schedule: Q01DX010 (sc), vehicle: Klucel (hydroxypropylcellulose) (HPC)) is reported as 1 of 3 on day 11.
For the molecule `COC1=C(OC)C(=O)C(SC/C=C(\C)CCCC(C)CCCC(C)CCCC(C)C)=CC1=O` (stereo not drawn), the survivor count (dose: 2400.0 mg/kg/injection, schedule: Q04DX003 (ip), vehicle: saline with Tween-80) is 2 of 6 on day 11.
As for `CC1CN1P1(N2CC2C)=NP(N2CC2C)(N2CC2C)=NP(N2CC2C)(N2CC2C)=N1` (stereo not drawn), the survivor count is reported as 1 of 6 on day 11 (dose: 300.0 mg/kg/injection, schedule: Q04DX003 (sc), vehicle: saline) and 0 of 6 on day 11 (dose: 600.0 mg/kg/injection, schedule: Q04DX003 (sc), vehicle: saline).
`CCN(CC)CCn1[nH]c2c3ccc(=O)cc3sc3c(NCCN)ccc1c32`: the survivor count was 0 of 6 on day 11 (dose: 25.0 mg/kg/injection, schedule: Q04DX003 (ip), vehicle: water) and 0 of 6 on day 11 (dose: 50.0 mg/kg/injection, schedule: Q04DX003 (ip), vehicle: water).
`COc1ccc(-c2cc(C(=O)Nc3cc(C(F)(F)F)cc(C(F)(F)F)c3)c3ccccc3n2)cc1`: under setting [4], the survivor count is 0 of 6 on day 11.
Regarding `CCCCCCCCCCCCCCCCP(=O)(OCCOCCCCCC)OCCOCCCCCC`, under “dose: 1200.0 mg/kg/injection, schedule: Q04DX003 (sc), vehicle: saline”, the survivor count is on record as 0 of 6 on day 11.
With `Cc1nc2c(N)cc(Cl)cc2[nH]1`, the survivor count under setting [5] is given as 0 of 6 on day 11 and the survivor count (dose: 800.0 mg/kg/injection, schedule: Q04DX003 (ip), vehicle: saline with Tween-80) is given as 0 of 6 on day 11.
With `CCOC(=O)C1=C(C)O/C(=C/c2cccc(Cl)c2)C1=O`, the survivor count (dose: 300.0 mg/kg/injection, schedule: Q04DX003 (ip), vehicle: saline with Tween-80) is given as 3 of 5 on day 11; the survivor count (dose: 600.0 mg/kg/injection, schedule: Q04DX003 (ip), vehicle: saline with Tween-80) is listed as 0 of 6 on day 11; the survivor count (dose: 1200.0 mg/kg/injection, schedule: Q04DX003 (ip), vehicle: saline with Tween-80) is 0 of 6 on day 11.
Consider `COc1cc2c(c3c1c(=O)c1ccccc1n3C)C=CC(C)(C)O2`, for which, under setting [3], the survivor count was 2 of 6 on day 11.
In the case of `CC(=O)Nc1cscc1NC(C)=O`, the T/C (dose: 600.0 mg/kg/injection, schedule: Q04DX003 (sc), vehicle: saline with Tween-80) was 135 % of control.
For `Nc1ccn([C@@H](C=O)O[C@@H](C=O)CO)c(=O)n1`, the survivor count (dose: 400.0 mg/kg/injection, schedule: Q04DX003 (sc), vehicle: saline) was 0 of 3 on day 11.
Regarding `CC[C@@]1(O)C(=O)OCc2c1cc1n(c2=O)Cc2cc3c(N)cccc3nc2-1`, the survivor count was 1 of 6 on day 11 (dose: 4.0 mg/kg/injection, schedule: Q04DX003 (ip), vehicle: saline with Tween-80) and 0 of 6 on day 11 (dose: 8.0 mg/kg/injection, schedule: Q04DX003 (ip), vehicle: saline with Tween-80).
Regarding `COc1cccc(Sc2ccc([N+](=O)[O-])c3no[n+]([O-])c23)c1`, the T/C is 126 % of control [5 of 6 alive on day 11] (dose: 30.0 mg/kg/injection, schedule: Q04DX003 (ip), vehicle: saline with Tween-80); 23, 53, 63 [5 of 6 alive on day 11], 89, 108 % of control under setting [1]; 7, 47, 79, 105 % of control (dose: 120.0 mg/kg/injection, schedule: Q04DX003 (ip), vehicle: saline with Tween-80); 4, 58, 75 % of control [4 of 6 alive on day 11] under setting [2]. Besides, the survivor count runs as follows: under setting [2], 3 of 5 on day 11; (dose: 960.0 mg/kg/injection, schedule: Q04DX003 (ip), vehicle: saline with Tween-80) 3 of 6 on day 11.
Turning to `CN1C2C=CC(=O)C1C1C(=O)N(c3ccccc3)C(=O)C12` (stereo not drawn), the survivor count reads like this: (dose: 400.0 mg/kg/injection, schedule: Q04DX003 (ip), vehicle: Klucel (hydroxypropylcellulose) (HPC)) 0 of 6 on day 11; (dose: 800.0 mg/kg/injection, schedule: Q04DX003 (ip), vehicle: Klucel (hydroxypropylcellulose) (HPC)) 0 of 6 on day 11.
For the molecule `CO[C@@]12[C@@H]3N[C@@H]3CN1C1=C(C(=O)C(N3CCCC3)=C(C)C1=O)[C@@H]2COC(N)=O`, the survivor count runs as follows: (dose: 12.0 mg/kg/injection, schedule: Q04DX003 (ip), vehicle: saline with Tween-80) 0 of 6 on day 11; (dose: 12.5 mg/kg/injection, schedule: Q04DX003 (ip), vehicle: saline with Tween-80) 0 of 6 on day 11; (dose: 25.0 mg/kg/injection, schedule: Q04DX003 (ip), vehicle: saline with Tween-80) 0 of 6 on day 11; (dose: 50.0 mg/kg/injection, schedule: Q04DX003 (ip), vehicle: saline with Tween-80) 0 of 6 on day 11; (dose: 100.0 mg/kg/injection, schedule: Q04DX003 (ip), vehicle: saline with Tween-80) 0 of 6 on day 11.
